PubChem BioAssay AID1224826 – NIAID – 2016
The deposit covers about 17,000 reagents; shown is a part drawn at random. In the full data, about 1,110 (6.6%) got an active call. 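Active means lowered or raised reporter signal; replicate intensities are raw and not normalised per plate.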 Entries without a mark were called inactive. Further read-outs or replicates are left out here.

- Test: 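Regulators of Tlr4 signalling leading to Tnf-alpha expression in macrophages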 (primary screen)
- Cell system: RAW264.7 G9 macrophages from mouse bearing reporters for p65 (GFP) and the Tnf promoter (mCherry)
- Reagent: siRNA pool against mouse genes, 100 nM
- Timing: 16 h of LPS stimulation, after 2 days of siRNA transfection
- Challenge: bacterial lipopolysaccharide (Salmonella minnesota R595), 10 ng/ml
- Read-out: 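Imaged Tnf reporter mCherry in nuclei, minus background, normalised per plate to the median and expressed as robust z-scores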
- Scale: Tnf reporter robust z-score: higher = stronger Tnf promoter reporter signal after LPS
- Call rule: 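Called active when robust z-score is at most -1.3, matching the median of the Tlr4 knock-down control, or over 3; control wells and wells with under 50 cells never active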
- Meaning of the calls: active = Tnf reporter clearly lowered or raised; inactive = no clear change in Tnf reporter

Atg4a (GeneID 666468): Tnf reporter robust z-score = 0.87; fewer than 50 cells in well = enough cells in well
Tagln2 (GeneID 21346): Tnf reporter robust z-score = -0.17; fewer than 50 cells in well = enough cells in well
Gpat3 (GeneID 231510): Tnf reporter robust z-score = 1.54; fewer than 50 cells in well = enough cells in well
Irx6 (GeneID 64379): Tnf reporter robust z-score = -0.63; fewer than 50 cells in well = enough cells in well
Fzd6 (GeneID 14368): Tnf reporter robust z-score = -0.1; fewer than 50 cells in well = enough cells in well
Ttc39a (GeneID 230603): fewer than 50 cells in well = fewer than 50 cells per well; well left out of calls
Bcar3 (GeneID 29815): Tnf reporter robust z-score = 1.33; fewer than 50 cells in well = enough cells in well
Tnc (GeneID 21923): Tnf reporter robust z-score = 0.73; fewer than 50 cells in well = enough cells in well
Clasrp (GeneID 53609): Tnf reporter robust z-score = 0.14; fewer than 50 cells in well = enough cells in well
Cntnap5b (GeneID 241175): Tnf reporter robust z-score = -0.22; fewer than 50 cells in well = enough cells in well
Adgrb1 (GeneID 107831): Tnf reporter robust z-score = -0.36; fewer than 50 cells in well = enough cells in well
C9 (GeneID 12279): Tnf reporter robust z-score = -0.19; fewer than 50 cells in well = enough cells in well
Nfatc2ip (GeneID 18020): Tnf reporter robust z-score = -1.21; fewer than 50 cells in well = enough cells in well
Ifna7 (GeneID 15970): Tnf reporter robust z-score = -0.17; fewer than 50 cells in well = enough cells in well

Sorted by “Tnf reporter robust z-score” (high to low): some entries from above
Tnc (GeneID 21923): Tnf reporter robust z-score = 0.73; fewer than 50 cells in well = enough cells in well
Clasrp (GeneID 53609): Tnf reporter robust z-score = 0.14; fewer than 50 cells in well = enough cells in well
